# Laboratory results as given in PubChem BioAssay AID1347076 (National Center for Advancing Translational Sciences (NCATS), 2019).
# Where “and” joins values, the source holds several entries; their conditions need not be identical. Identical values can stand only once. Screen size: about 400,000 compounds; about 13,000 (3.2%) were called active. This list was built around the results that the source calls inconclusive (neither active nor inactive); the mix of calls is not that of the screen. The call rests on the fitted dose curve; in most records, active means well fitted cell-killing curve with a large enough effect; inconclusive means small, poorly fitted or top-dose-only effect, or effect the other way; inactive means flat fitted curve, though single readings scatter. A potency beside an inconclusive call is a rough fit, not a confirmed value.
# Assay: qHTS assay for MDR1-selective chemotherapeutics: Primary screen using the drug-selected MDR subline cells KB-V1; further: nearly all actives have a fitted effect of over 60% in size
# Details: KB-V1 MDR cells viability, CellTiter-Glo, 72 h; series mostly up to 46.1 µM
# Procedure, shortened: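 Following 72 h at 37 degrees C with compound, KB-V1 cell viability was read by CellTiter-Glo luminescence, medium being phenol-red-free DMEM plus 10% FBS; concentration-response parameters came from normalized, curve-fitted qHTS data.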
# Potency means the concentration at half of the fitted maximal effect.
row,SMILES,Potency
1,COc1ccc(-c2cc(C(=O)N3CCN(c4ccccc4)CC3)c3ccccc3n2)cc1OC,"inconclusive: 20.6 µM [cytotoxic, partial curve]"
2,COc1ccc(C2=NN(C(C#N)c3ccc(OC)cc3)C(c3ccccc3)C2)cc1 (stereo unspecified),active: 6.51 µM
3,Cc1ccc(S(=O)(=O)N2CC(CO)=CCC2c2ccccc2)cc1 (stereo unspecified),"inconclusive: 18.4 µM [cytotoxic, partial curve]"
4,COCc1cc(=O)[nH]c(N2CCN(c3ccccc3OC)CC2)n1,"inconclusive: 29.1 µM [rising, single point]"
5,Cc1ccnc2nc(C(=O)OCC(=O)c3ccc(NC(=O)CC(C)C)cc3)nn12,"inconclusive: 18.4 µM [rising, partial curve]"
6,COc1ccc(C(=O)NC(C)CCc2ccccc2)cc1[N+](=O)[O-] (stereo unspecified),"inconclusive: 11.6 µM [cytotoxic, partial curve]"
7,CCOc1ccc(CN2CCN(Cc3cn(CC)nc3C)CC2CCO)cc1 (stereo unspecified),"inconclusive: 0.92 µM [rising, full curve]"
8,CC(C)(C)c1ccc(C(=O)NC2(C(F)(F)F)NC(=O)N(CCc3ccccc3)C2=O)cc1 (stereo unspecified),inactive
9,CCOC(=O)C1(C)CCN1C(=O)c1ccc2c(c1)CCO2 (stereo unspecified),inactive
10,CCCCC[C@H]1CN(Cc2ccccc2)C(=O)[C@@H]1CC(=O)NCc1ccccc1,"inconclusive: 6.51 µM [cytotoxic, partial curve] and inconclusive: 29.1 µM [cytotoxic, single point]"
11,Cc1ccccc1OCC(=O)Nc1ccccc1N1CCOCC1,"inconclusive: 20.6 µM [cytotoxic, single point]"
12,COc1ccc(Nc2nc(N)nc(CSC(=S)N3CCC(C)CC3)n2)cc1,"inconclusive: 18.4 µM [cytotoxic, partial curve, poor fit]"
13,Cc1cc(C)c(C#N)c(SCc2ccc(C(=O)O)cc2)n1,inactive
14,OCCC1CN(Cc2nc3ccccc3s2)CCN1CCc1ccccc1 (stereo unspecified),inactive
15,Cc1ccc(OCC(=O)Nc2ccc3nc(SCC(=O)Nc4ccc(C)cc4C)sc3c2)cc1,inactive
16,CCOc1cc(C(=O)NC)cc(Br)c1OCc1ccccc1,"inconclusive: 10.3 µM [cytotoxic, partial curve, poor fit]"
17,COc1cc(/C=C2\C(=O)ON=C2c2ccccc2)cc(Br)c1O,"inconclusive: 18.4 µM [cytotoxic, single point]"
18,CCN(C[C@H]1N[C@@](C)(C(=O)OC)[C@H]2C(=O)N(Cc3ccccc3)C(=O)[C@@H]12)C(=O)Nc1ccccc1,inactive
19,CCN(CC)S(=O)(=O)c1cccc(NC(=O)c2cccc(S(=O)(=O)N3CCCC3)c2)c1,"inconclusive: 29.1 µM [cytotoxic, single point]"
20,COc1cc(NS(=O)(=O)c2ccc(NC(=S)NC(=O)CC(C)C)cc2)nc(OC)n1,inactive
21,OC(c1ccccc1)(c1nc(/C=C/c2ccccc2)cs1)C(F)(F)F (stereo unspecified),inactive
22,COc1ccc(C(CC(=O)Nc2cc(C)ccn2)N2Cc3ccccc3C2=O)cc1 (stereo unspecified),"inconclusive: 16.4 µM [cytotoxic, single point]"
23,Cc1ccc(N2CC(C(=O)Nc3nnc(SCCN4CCOCC4)s3)CC2=O)cc1 (stereo unspecified),"inconclusive: 29.1 µM [rising, single point]"
24,O=C(c1ccccc1)N1CCN(c2ccc(Cl)cc2)CC1,"inconclusive: 18.4 µM [cytotoxic, single point]"

row,SMILES,Potency
1,COc1cc(C(=O)Nc2sc(C)c(C)c2C(=O)O)cc(OC)c1OC,inactive
2,Cc1ccc2nc(-c3ccccn3)[nH]c2c1,active: 18.4 µM
3,CCOC(=O)c1c(C)c(C(=O)NCc2ccccn2)c(C)n1CC,active: 16.4 µM
4,O=C(NCc1cccs1)C1CCCN1S(=O)(=O)c1ccccc1F (stereo unspecified),active: 11.6 µM
5,O=C1NC(c2ccc3c(c2)OCO3)Nc2ccccc21 (stereo unspecified),"inconclusive: 23.1 µM [cytotoxic, single point]"
6,CSc1ccc(CN2CCCC(N3CCN(c4ccccc4)CC3)C2)cc1 (stereo unspecified),inactive
7,CCOc1ccc(C(=O)COC(=O)c2c(-c3ccccc3)noc2C)cc1,"inconclusive: 29.1 µM [cytotoxic, single point]"
8,COC(=O)/C=C1\N/C(=N/c2nc(C)c3cc(OC)ccc3n2)NC1=O,inactive
9,Cc1cccc(C(=O)Nc2ccn(C)n2)c1,inactive
10,COc1ccc(NC(=O)c2sc3nc4c(cc3c2N)CCCCCC4)cc1,"inconclusive: 18.4 µM [cytotoxic, partial curve]"
11,Cc1cc(-c2nc3ccccc3s2)ccc1N,active: 18.4 µM
12,CN(C)C(=S)c1ccc(N(C)C)cc1,"inconclusive: 25.9 µM [rising, single point]"
13,Cc1cccc(NC(=O)/C(C#N)=C/c2ccc[nH]2)c1C,inactive
14,O=C(Nc1ccc([N+](=O)[O-])c(NC(=O)c2cccnc2)c1)c1cccnc1,"inconclusive: 20.6 µM [rising, single point]"
15,Cc1ccccc1OCCN1C(=O)NC2(CCCc3ccccc32)C1=O (stereo unspecified),"inconclusive: 13 µM [cytotoxic, partial curve]"
16,CN(C)CCCNC(=O)c1ccc(-c2cc(O)c3ncccc3c2)cc1,"inconclusive: 16.4 µM [cytotoxic, single point]"
17,CCOC(=O)c1ccc(CNC(=O)CSc2nnc(-c3ccncc3)o2)cc1,"inconclusive: 29.1 µM [cytotoxic, single point]"
18,COc1ccccc1OCc1ccc(C(=O)Nc2ccc(Cl)cn2)o1,"inconclusive: 20.6 µM [cytotoxic, single point]"
19,O=C(c1cccs1)N1C[C@H](n2cc(C3CC3)nn2)[C@@H](O)C[C@@H]1c1ccccc1,"inconclusive: 0.651 µM [rising, full curve, poor fit]"
20,CCOc1ccc(S(=O)(=O)N2CCN(C(=O)c3ccco3)CC2)cc1,inactive
21,CCOC(=O)c1sc2nccc(N(C)C)c2c1N=CNOC,"inconclusive: 4.61 µM [cytotoxic, full curve]"
22,Cc1cc(C)c2nc(-c3ccccn3)cc(C(=O)NCc3cc(C)n(C)n3)c2c1,"inconclusive: 5.17 µM [cytotoxic, full curve]"
23,COc1cc(OC)cc(C(=O)NNC(=O)C2CCCC2)c1,inactive
24,O=C(Nc1cccc(C(F)(F)F)c1)N1CCC(c2nc(-c3ccc(F)cc3)no2)CC1,active: 2.59 µM

row,SMILES,Potency
1,Cc1ccc(N(C)S(=O)(=O)c2cccc(C(=O)Nc3ccc(N4CCOCC4)cc3)c2)cc1,"inconclusive: 29.1 µM [rising, single point]"
2,O=C(Nc1ccc(F)cc1)c1ccc(NC(=O)C2CCCO2)cc1 (stereo unspecified),"inconclusive: 14.6 µM [cytotoxic, partial curve]"
3,CCCCCNc1nc(N2CCCC2)c2c(c1C#N)CCN(C)C2,active: 23.1 µM
4,Cc1cccc(N(Cc2ccccc2)C(=O)c2ccccc2S(C)(=O)=O)c1,inactive
5,Cc1cc(/C=N\NC(=O)CC(=O)NC2CCCCC2)c(C)n1-c1ccc(Cl)cc1,active: 20.6 µM
6,COc1ccc(COC(=O)C2=C(C)NC(=O)NC2c2ccccc2)cc1 (stereo unspecified),"inconclusive: 14.6 µM [cytotoxic, partial curve]"
7,CC(=O)c1ccc(S(=O)(=O)N2CCN(c3nc(-c4cccs4)nc4ccccc34)CC2)cc1,inactive
8,COCc1cc(C)nc(NCCc2ccccc2)c1C#N,"inconclusive: 16.4 µM [cytotoxic, single point]"
9,COC(=O)c1sccc1NC(=O)c1ccc(C(C)C)cc1,"inconclusive: 9.2 µM [cytotoxic, partial curve, poor fit]"
10,Cc1cc2ncn(CC(C)C)c2cc1C,inactive
11,O=C(CSc1cccc2cccnc12)OCC(=O)c1ccc(Br)cc1,"inconclusive: 29.1 µM [rising, single point]"
12,CC(C)(C)S(=O)N1Cc2cc(C(=O)NCc3ccc(Oc4ccccc4)cc3)nc(-c3cccc(-c4cc5ccccc5o4)c3)c2[C@@H]1CCO (stereo partly specified),"inconclusive: 29.1 µM [cytotoxic, single point]"
13,N#CC(C(=O)NCCc1ccccc1)c1nc2ccccc2nc1N1CCOCC1 (stereo unspecified),"inconclusive: 18.4 µM [cytotoxic, single point]"
14,CCc1nnc(NC(=O)C2Cc3ccccc3CN2S(=O)(=O)c2c(C)c(C)cc(C)c2C)s1 (stereo unspecified),active: 10.3 µM
15,CC(C)[C@@H](C(=O)O)N(Cc1cccc(CN([C@H](C(=O)O)C(C)C)S(C)(=O)=O)c1)S(C)(=O)=O,"inconclusive: 16.4 µM [rising, single point]"
16,CC1(C(=O)O)CCC(C(=O)NC2CCCCCC2)C1(C)C (stereo unspecified),"inconclusive: 29.1 µM [rising, single point]"
17,Cc1ccc(-c2nc(SCC(=O)NCC3CCCO3)c3c(=O)n(C)c(=O)n(C)c3n2)cc1 (stereo unspecified),"inconclusive: 18.4 µM [rising, partial curve, poor fit]"
18,CCOC(=O)N1CCC(N(CCOC)C(=O)Nc2ccc(CC)cc2)CC1,"inconclusive: 9.2 µM [cytotoxic, partial curve, poor fit]"
19,NC(=O)CN1C(=O)NC2(CCCc3sccc32)C1=O (stereo unspecified),inactive
20,CC(C)CN(C(=O)c1ccc([N+](=O)[O-])s1)c1c(N)n(Cc2ccccc2)c(=O)[nH]c1=O,inactive
21,COc1cc2[nH]c3c(=O)n4c(nc3c2cc1OC)SCCC4,"inconclusive: 23.1 µM [cytotoxic, single point]"
22,Oc1c(C(c2ccccc2F)N2CCN(c3ccccc3F)CC2)sc2nc(-c3ccco3)nn12 (stereo unspecified),"inconclusive: 16.4 µM [rising, single point]"
23,Cn1nnnc1SCC(=O)Nc1cccc(S(=O)(=O)N2CCCCC2)c1,active: 20.6 µM
